For at least one entry, the source does not settle the construct or the ends of the probe. Protein sequences can lack the tags named with them.
Biological target: T1, Brn3 (Brn3a/Brn3b, endogenous Brn3 activity) (Mus musculus) (UniProt P17208)
T1 sequence (limits assumed): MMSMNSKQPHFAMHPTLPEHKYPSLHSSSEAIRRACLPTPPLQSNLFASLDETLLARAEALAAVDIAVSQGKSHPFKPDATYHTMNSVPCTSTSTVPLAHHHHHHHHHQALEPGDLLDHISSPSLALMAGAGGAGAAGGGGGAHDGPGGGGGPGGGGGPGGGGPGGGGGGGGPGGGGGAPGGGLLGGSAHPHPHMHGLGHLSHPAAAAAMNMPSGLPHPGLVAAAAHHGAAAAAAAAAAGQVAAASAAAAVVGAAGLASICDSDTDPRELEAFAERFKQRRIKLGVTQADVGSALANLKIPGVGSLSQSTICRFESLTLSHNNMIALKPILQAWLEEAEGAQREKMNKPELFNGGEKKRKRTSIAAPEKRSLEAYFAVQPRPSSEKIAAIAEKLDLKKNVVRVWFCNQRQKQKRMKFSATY
Test: activity in cells
Details: transfected decoy almost completely abolished RANKL-induced Brn3 binding activity in nuclear extracts; protein in cells; protein details: endogenous, RANKL-stimulated RAW264.7 cells

CACAGCTCATTAACGCGC (double strand) [Brn3 decoy oligonucleotide]
activity on this sequence: active

— patent US20050214282A1
